{"source": "PubChem BioAssay AID504467", "about": "(National Center for Advancing Translational Sciences (NCATS), 2011)", "note": "In all, about 330,000 compounds went through this assay and about 7,700 (2.3%) were called active. This list was built around the results that the source calls inconclusive (neither active nor inactive); the mix of calls is not that of the screen. Calls follow the shape of the dose curve; as a rule, active = well fitted inhibition curve with a large enough effect; inconclusive = small, poorly fitted or top-dose-only effect, or effect the other way; inactive = flat fitted curve, though single readings scatter. A potency beside an inconclusive call is a rough fit, not a confirmed value. % is scaled to controls: 0 for no effect and ±100 for the full control effect; potency is read from the fitted curve at half-maximal effect.", "data": [{"assay": "qHTS screen for small molecules that inhibit ELG1-dependent DNA repair in human embryonic kidney (HEK293T) cells expressing luciferase-tagged ELG1; also: nearly all actives have a fitted effect of over 55% in size", "conditions": "HEK293T ELG1-luciferase reporter, luminescence, 16 h, DNA damage induced by 5-fluorouridine; activity change, negative = inhibition: at 46.1 µM (top of the series)", "outline": "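HEK293T cells expressing luciferase-tagged ELG1 (2,000/well) received 5-Fluorouridine plus compound or DMSO for 16 hr at 37 °C. Luciferase was read by ONE-Glo luminescence after 30 min at room temperature.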", "values": [{"smiles": "COc1ccccc1C(=O)Nn1c(C)nc2ccccc2c1=O", "activity change, negative = inhibition": "inactive: -0.514%"}, {"smiles": "CCCNC(=O)c1ccc(N2CCC3(CC2)CC(c2cccc(Br)c2)=NO3)c(N)c1", "Potency": "inconclusive: 25.1 µM [inhibitor, single point]"}, {"smiles": "COc1ccc(C2NC(=O)NC(C)=C2C(=O)OC2CCC(C)CC2)cc1", "note": "(stereo unspecified)", "Potency": "inconclusive: 29.1 µM [inhibitor, single point]"}, {"smiles": "Cc1cnc(C(=O)OCC(=O)c2ccc(Br)s2)cn1", "activity change, negative = inhibition": "inactive: 1.45%"}, {"smiles": "CSC1=C(C#N)C(c2ccc(Cl)cc2)C2=C(CC(C)(C)CC2=O)N1", "note": "(stereo unspecified)", "Potency": "active: 18.4 µM"}, {"smiles": "COc1ccc(C(=O)NNC(=S)NC(=O)C(C)(C)C)cc1", "Potency": "inconclusive: 29.1 µM [activator, single point]"}, {"smiles": "CC(=O)Nc1sc2c(c1C(c1ccc(Cl)cc1)N1CCOCC1)CCCC2", "note": "(stereo unspecified)", "Potency": "inconclusive: 16.4 µM [inhibitor, single point]"}, {"smiles": "COc1cc(OC)cc(C(=O)NCC(=O)NC(C)c2ccccc2)c1", "note": "(stereo unspecified)", "Potency": "inconclusive: 20.6 µM [inhibitor, single point]"}, {"smiles": "O=C(Nc1ccccc1Cl)c1cccs1", "Potency": "inconclusive: 20.6 µM [activator, partial curve]"}, {"smiles": "Cc1ccccc1C(=O)Nc1ccc2c(c1)OCO2", "Potency": "inconclusive: 1.64 µM [activator, partial curve]"}, {"smiles": "COc1ccc(CCNc2nc(C)nc3c2nnn3Cc2ccccc2)cc1OC", "Potency": "inconclusive: 23.1 µM [inhibitor, single point]"}, {"smiles": "CCN(CC)S(=O)(=O)c1cccc(C(=O)N/N=C/c2ccc(O)c(O)c2O)c1", "activity change, negative = inhibition": "inactive: -14.1%"}, {"smiles": "Cn1c(-c2ccccc2)c(/C=N/NC(=O)c2ccc(O)cc2)c2ccccc21", "Potency": "inconclusive: 2.91 µM [activator, full curve]"}, {"smiles": "CCOC(=O)c1sc(=S)n(-c2ccc(OC)cc2)c1N", "activity change, negative = inhibition": "inactive: 8.65%"}, {"smiles": "N#C/C(=C\\c1cn(-c2ccccc2)nc1-c1cccnc1)c1nnc2n1CCCCC2", "Potency": "active: 20.6 µM"}, {"smiles": "CCOc1ccc(/C=C\\C(C)=N\\O)cc1", "Potency": "inconclusive: 10.3 µM [activator, partial curve]"}, {"smiles": "Cc1ccc(S(=O)(=O)N2CC=C(C(=O)NCc3ccc(F)cc3)CC2)cc1", "activity change, negative = inhibition": "inactive: -3.18%"}, {"smiles": "Cc1ccc2nc(-c3cccc(S(=O)(=O)N4CCCC4)c3)cn2c1", "Potency": "inconclusive: 20.6 µM [activator, single point]"}, {"smiles": "O=C(NCc1cccnc1)c1ccc(-c2cc(Cl)ccc2Cl)o1", "Potency": "active: 23.1 µM"}, {"smiles": "CC(C)C(=O)N1CCN(S(=O)(=O)c2ccc3ccccc3c2)CC1", "Potency": "inconclusive: 20.6 µM [inhibitor, single point]"}, {"smiles": "O=C(CCn1nc(-c2ccc(Cl)cc2)c2ccccc2c1=O)NCC1CCCO1", "note": "(stereo unspecified)", "Potency": "inconclusive: 20.6 µM [inhibitor, single point]"}, {"smiles": "Cc1sc2ncnc(Nc3ccc(O)cc3)c2c1C", "activity change, negative = inhibition": "inactive: 0.141%"}, {"smiles": "Cn1c(=O)n(C/C=C/c2ccccc2)c(=O)c2c1nc1n2CCCN1c1ccc(F)cc1", "Potency": "active: 23.1 µM"}, {"smiles": "CSc1nnc(NC(=O)c2nc(S(=O)(=O)Cc3ccccc3)ncc2Cl)s1", "Potency": "inconclusive: 29.1 µM [inhibitor, single point]"}, {"smiles": "CCOC(=O)c1c(-c2ccc(F)cc2)csc1NC(=O)C1CCCO1", "note": "(stereo unspecified)", "Potency": "inconclusive: 29.1 µM [inhibitor, single point]"}, {"smiles": "CCCc1cn(S(=O)(=O)c2ccc(OC)cc2OC)nc1N", "Potency": "inconclusive: 16.4 µM [activator, single point]"}, {"smiles": "COCCN1CCN(c2c3c(nc4cc(-c5cccc(F)c5)nn24)CCC3)CC1", "Potency": "inconclusive: 20.6 µM [inhibitor, partial curve, poor fit]"}, {"smiles": "COc1ccc(OC)c(NC(=O)c2ccc(OC3CSC3)cc2)c1", "Potency": "inconclusive: 7.3 µM [activator, partial curve]"}, {"smiles": "CCC1(c2ccccc2)NC(=O)N(CC(=O)Nc2ccc(Cl)c(S(=O)(=O)N3CCCCC3)c2)C1=O", "note": "(stereo unspecified)", "Potency": "inconclusive: 29.1 µM [inhibitor, single point]"}, {"smiles": "CCOc1cc(NS(C)(=O)=O)c(OCC)cc1NC(=O)c1cccs1", "Potency": "inconclusive: 16.4 µM [inhibitor, partial curve, poor fit]"}, {"smiles": "CCOC(=O)Nc1ccc2c(COC(=O)CNS(=O)(=O)c3cccc(Br)c3)cc(=O)oc2c1", "Potency": "inconclusive: 29.1 µM [activator, single point]"}, {"smiles": "CCOC(=O)C(C)S(=O)(=O)c1ccc(C(F)(F)F)cn1", "note": "(stereo unspecified)", "Potency": "inconclusive: 29.1 µM [activator, partial curve, poor fit]"}, {"smiles": "CCOc1cc(N2CCOCC2)c(OCC)cc1NC(=O)c1ccc(OC)c(S(=O)(=O)N2CCOCC2)c1", "Potency": "inconclusive: 16.4 µM [inhibitor, partial curve]"}, {"smiles": "O=S(=O)(Cc1ccc(Cl)cc1)N1CCN(Cc2ccccc2)CC1", "Potency": "inconclusive: 6.51 µM [activator, full curve]"}, {"smiles": "CCOC(=O)C(C(=O)Nc1nc2ccccc2s1)C1CCCCC1", "note": "(stereo unspecified)", "activity change, negative = inhibition": "inactive: -4.59%"}, {"smiles": "COc1cccc(C(=O)Nc2ccc3c(cc2=O)[C@@H](NC(C)=O)CCc2cc(OC)c(OC)c(OC)c2-3)c1", "Potency": "inconclusive: 25.9 µM [inhibitor, partial curve]"}, {"smiles": "CC1CCN(S(=O)(=O)c2ccc(NC(=O)CCN3C(=O)C4CC=CCC4C3=O)cc2)CC1", "note": "(stereo unspecified)", "Potency": "inconclusive: 29.1 µM [inhibitor, single point]"}, {"smiles": "O=C(O)COc1ccccc1/C=N/NC(=O)CSc1nnc(SCc2ccc(Cl)cc2)s1", "activity change, negative = inhibition": "inactive: 3.42%"}, {"smiles": "c1ccc(Cn2c(NCc3ccco3)nc3ccccc32)cc1", "activity change, negative = inhibition": "inactive: -2.5%"}, {"smiles": "COc1ccc(/C=C2\\CCCC3C2=NN(C(=O)c2ccco2)C3c2ccc(OC)c(OC)c2)cc1OC", "note": "(stereo unspecified)", "Potency": "inconclusive: 20 µM [inhibitor, single point]"}, {"smiles": "COc1ccc(NC(=O)CCC(=O)c2cccs2)cc1S(=O)(=O)Nc1ccc(Cl)cc1", "Potency": "inconclusive: 20.6 µM [inhibitor, single point]"}, {"smiles": "O=C(CN1C(=O)COc2ccccc21)NCCCN1CCN(c2ccccc2F)CC1", "activity change, negative = inhibition": "inactive: 24.8%"}, {"smiles": "COc1ccc(/C=C2/SC(=S)N(c3ccc(S(=O)(=O)Nc4nccs4)cc3)C2=O)cc1", "activity change, negative = inhibition": "inactive: -19.3%"}, {"smiles": "O=Cc1sc([O-])nc1-[n+]1ccc2ccccc2c1", "activity change, negative = inhibition": "inactive: 9.25%"}, {"smiles": "Cc1onc(-c2c(Cl)cccc2Cl)c1C(=O)c1c[nH]c(C(=O)NCC2CCCO2)c1", "note": "(stereo unspecified)", "Potency": "active: 18.3 µM"}, {"smiles": "COc1cccc(CNC(=O)c2c(C)nn(-c3ccccc3)c2C)c1", "Potency": "inconclusive: 29.1 µM [inhibitor, single point]"}, {"smiles": "CCOC(=O)C1=C(C)Nc2nc(SCc3cccnc3)nn2C1c1ccc(OC)cc1", "note": "(stereo unspecified)", "Potency": "inconclusive: 20.6 µM [inhibitor, single point]"}, {"smiles": "CCn1c(-c2nn(C)cc2Cl)n[nH]c1=S", "activity change, negative = inhibition": "inactive: 28.9%"}, {"smiles": "Cc1ccc(NC(=S)NC(NC(=O)Cc2cccc3ccccc23)C(Cl)(Cl)Cl)cc1", "note": "(stereo unspecified)", "Potency": "inconclusive: 2.59 µM [inhibitor, partial curve, poor fit]"}, {"smiles": "Cc1ccc(C(=O)COC(=O)COc2ccccc2C)cc1", "activity change, negative = inhibition": "inactive: 14.1%"}, {"smiles": "CC(C)c1cccc(-c2ccc3c(c2)S(=O)(=O)c2cccc(C(=O)NCc4ccco4)c2C3=O)c1", "activity change, negative = inhibition": "inactive: -15%"}, {"smiles": "Cc1cccn2c(=O)c3cc(S(=O)(=O)c4ccccc4)c(=N)n(Cc4cccnc4)c3nc12", "Potency": "inconclusive: 20.6 µM [inhibitor, single point]"}, {"smiles": "O=[N+]([O-])c1cc2cccnc2c2ncccc12", "Potency": "active: 7.3 µM"}, {"smiles": "Cc1ccc(-n2c(C)nnc2SCC(=O)NNC(=O)c2ccco2)cc1", "activity change, negative = inhibition": "inactive: 7.93%"}, {"smiles": "CCC(C)NC(=O)c1ccc2nc(Cc3ccc(OC)cc3)oc2c1", "note": "(stereo unspecified)", "activity change, negative = inhibition": "inactive: -11.4%"}, {"smiles": "Cc1ccc(N(C(=O)c2snc(C(N)=O)c2N)C(C(=O)NCCC(C)C)c2ccco2)cc1", "note": "(stereo unspecified)", "Potency": "inconclusive: 29.1 µM [inhibitor, single point]"}, {"smiles": "CCc1nc(Nc2ccccc2)c2oc3ccccc3c2n1", "Potency": "inconclusive: 16.4 µM [inhibitor, partial curve, poor fit]"}, {"smiles": "COc1cc(C2c3cc4c(cc3C(OC3OC5COC(c6cccs6)OC5C(O)C3O)C3COC(=O)C23)OCO4)cc(OC)c1O", "note": "(stereo unspecified)", "Potency": "inconclusive: 18.3 µM [inhibitor, single point]"}, {"smiles": "O=C(c1ccc2c(Cl)c3c(nc2c1)CCCC3)N1CCN(c2ccc(F)cc2)CC1", "Potency": "inconclusive: 29.1 µM [inhibitor, single point]"}, {"smiles": "COc1ccc(S(N)(=O)=O)cc1C(=O)OCCCOC(=O)c1cc(S(N)(=O)=O)ccc1OC", "activity change, negative = inhibition": "inactive: -5.94%"}, {"smiles": "Cc1cccc(NC2=NC(=S)N(CC#N)C23CCCCC3)c1", "activity change, negative = inhibition": "inactive: 5.06%"}, {"smiles": "Cc1ccc(-c2nc3ccccc3o2)cc1NC(=S)NC(=O)c1cc2ccccc2o1", "Potency": "inconclusive: 16.4 µM [activator, partial curve]"}, {"smiles": "CCOC(=O)c1sc(C)c2c1NC(C)(c1cccc3ccccc13)NC2=O", "note": "(stereo unspecified)", "Potency": "inconclusive: 23.1 µM [inhibitor, single point]"}, {"smiles": "COc1cc(C(=O)Nc2cc(OC)c(OC)c(OC)c2)ccc1OCc1c(C)noc1C", "activity change, negative = inhibition": "inactive: -14%"}, {"smiles": "O=C(O)c1cc(-c2ccccc2)c(N2CCOCC2)s1", "activity change, negative = inhibition": "inactive: 0.716%"}, {"smiles": "CC(=O)c1ccc(NC(=O)C(=O)c2cn(CC(=O)N3CCCCC3)c3ccccc23)cc1", "Potency": "inconclusive: 16.4 µM [activator, single point]"}, {"smiles": "Nc1ccccc1C(=O)Nc1cccc2ccccc12", "Potency": "inconclusive: 20.6 µM [activator, partial curve]"}, {"smiles": "O=C(CSc1ccc(-c2ccc(F)cc2)nn1)N1CCOCC1", "activity change, negative = inhibition": "inactive: 26.3%"}, {"smiles": "CC(C)NC(=O)C(=O)NCc1ccccn1", "Potency": "inconclusive: 10.3 µM [activator, partial curve, poor fit]"}, {"smiles": "COC(=O)c1cccc(NC(=O)c2cc(OC)c(OC)c(OC)c2Br)c1", "Potency": "active: 11.6 µM"}, {"smiles": "NS(=O)(=O)c1ccc(NC(=O)c2ccc3c(c2)CCN3S(=O)(=O)c2ccccc2)cc1", "Potency": "inconclusive: 25.9 µM [inhibitor, partial curve, poor fit]"}]}]}
